According to US20260022143A1 (JANSSEN PHARMACEUTICA NV, priority 2022, published 2026):

Assays:
[1] = general procedure: Fmoc solid-phase peptide synthesis; Rink Amide MBHA resin (C-terminal amides); pre-loaded Wang resin (C-terminal acids); HBTU/DIEA (PyAOP/DIEA for some couplings); Oxyma/DIC; settings: one disulfide bridge; for oxidative folding yield: oxidative folding step
[2] = general procedure: Fmoc solid-phase peptide synthesis; Sar-CTC Resin; HBTU/DIEA (PyAOP/DIEA for some couplings); Oxyma/DIC; settings: whole synthesis, scale 0.30 mmol, one disulfide bridge

Substance | oxidative folding yield ([1]; for this step) [%] | final HPLC purity ([1]; whole synthesis, analysis on a C18 column, flow rate 1 mL/min) [%] | isolated yield ([1]; whole synthesis, overall) [%] | isolated mass [2] [mg] | oxidative folding yield ([1]; sequence written open)
CF3CO-Pen(3)-N(N(Me)2)-T-7MeW-K(NMeAc)-Pen(3)-AEF-2Nal-THP-K(NMeAc)-N-3Pya-Sar-CON(Me)2 | 12.1 | 95.0 | 6.83 | 49.7 | –
MeCO-Pen(3)—N-T-7MeW—K(Ac)-Pen(3)-AEF-2Nal-THIP-E-N-3Pya-Sar-COMor | – | – | – | – | Yield: 12.6%
MeCO-k(Me)3-Pen(3)-N(N(Me)2)-T-7MeW-K(NMeAc)-Pen(3)-AEF(N(Me)2)-2Nal-THP-E-N-3Pya-Sar-CON(Me)2 | – | – | – | – | Y=13.4%
cPEG5aCO-Pen(3)-N(N(Me)2)-T-7MeW-Dab(NMecPEG5a)-Pen(3)-AEF-2Nal-THP-E-N-3Pya-Sar-CON(Me)2 | – | – | – | – | Y=10%
